The values that follow come from PubChem BioAssay AID2685 (National Center for Advancing Translational Sciences (NCATS), 2010).

Some of the results follow. These are further read-outs of the screen, such as a control signal, another cell line or another target. No call is given for them. Compounds called inactive in the main read-out are mostly missing here. The note in brackets gives the kind of curve behind each potency; many fits are weak.

This experiment is described as follows: qHTS Assay for Lipid Storage Modulators in Drosophila S3 Cells.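 For cell number change: cells counted by Cell Tracker Red CMTPX staining in the red channel.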 Conditions: BODIPY lipid droplet fluorescence, 18-24 h; for cell number change: measured here: cell count max response, cells fed with added oleic acid. The method in brief: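 Drosophila S3 cells loaded with oleic acid (400 uM, as added) and compounds at several concentrations; lipid droplets imaged by 488-nm laser-scanning cytometry, 500–530 nm intensity and object ratio to cell channel. Percent activity normalized to 20 uM Triacsin C.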

Setting [1] is: measured here: cell number channel AC50, cells fed with added oleic acid.
The mark [2] stands for this setting: measured here: lipid fluorescence (Fed channel) AC50, cells fed with added oleic acid.

Consider `CCO/N=C(/c1nonc1N)N1CCN(c2ccc([N+](=O)[O-])cc2)CC1`, for which the cell number change was -63.9%. Also, the concentration at half-maximal activity (AC50) under setting [1] was 6.51 µM [falling, partial curve]. Besides, the AC50 under setting [2] is 5.8 µM [falling, full curve].

Regarding `CCn1c(CSCc2ccc(C)cc2)nnc1SCC(=O)N1CCN(c2ccccc2)CC1`, the AC50 is, setting by setting: under setting [1], 0.731 µM [falling, full curve]; under setting [2], 6.51 µM [falling, single point]. `CCCN(CC(=O)Nc1ccccc1C)C(=O)c1ccc(OCc2c(C)noc2C)cc1`: the cell number change is 45.1%. For the same compound, the AC50 under setting [1] was 9.2 µM [rising, partial curve]. Consider `CCc1ccc(NC(=O)CCc2nnc3ccc(N4CCCC4)nn23)cc1`, for which the cell number change was found to be 10%. Also, the AC50 under setting [1] is 1.64 µM [rising, partial curve, poor fit]. Further, under setting [2], the AC50 is 6.51 µM [rising, single point]. With `O=C(N/N=C1/CC2C=CCC12)c1cccs1` (stereo not drawn), the cell number change came to 15.2%. Also, the AC50 under setting [2] was 0.103 µM [rising, full curve, poor fit]. As to `O=c1n(-c2ccccc2)c(=O)n(Cc2ccccn2)n1Cc1ccccn1`, the cell number change turned out to be 7.05%. In addition, the concentration at half-maximal activity (AC50) under setting [1] is 0.231 µM [falling, full curve]. For the same compound, the AC50 under setting [2] is 0.411 µM [falling, full curve]. Regarding `CC1CCCC(C)N1C(=O)COC(=O)CNC(=O)c1ccccc1` (stereo not drawn), the cell number change was -0.501%. Consider `CCn1c(O)c(N=NC(=O)CNC(=O)Cc2ccccc2)c2ccccc21`, for which the cell number change was -13.1%. Take `CCOC(=O)C1=C(CC)Nc2ccccc2N=C1NC(=O)c1oc2ccccc2c1C`: the cell number change amounted to 5.78%. In addition, the AC50 under setting [1] was 2.31 µM [rising, partial curve, poor fit]. Also, the AC50 under setting [2] was 2.91 µM [rising, partial curve, poor fit]. Regarding `C=CCN(CC=C)Cc1c(O)ccc2c(=O)c(-c3ccccc3)coc12`, the cell number change was -3.3%. Besides, the AC50 under setting [2] is 6.51 µM [falling, single point]. Take `CC(C)(C)NC(=O)NC(=O)COC(=O)c1cccc(OC(F)F)c1`: under setting [2], the half-maximal activity concentration (AC50) is 5.17 µM [falling, partial curve]. Take `O=C(Cc1ccccc1)Nc1ccccc1C(=O)Nc1ccccc1`: the cell number change was -11.5%. The half-maximal activity concentration (AC50) under setting [2] was 29.1 µM [rising, single point]. For the compound `O=C(CN(C(=O)CCC(=O)Nc1nccs1)c1ccc(F)cc1)NCc1ccco1`, the cell number change was found to be 14.8%. Moreover, the AC50 under setting [2] was 0.92 µM [rising, full curve, poor fit].

As to `Cc1cc(NC(=O)CCC(=O)N(Cc2ccco2)C(C(=O)NC2CCCCC2)c2cccs2)no1` (stereo not drawn), the cell number change is -33.1%. For the same compound, under setting [1], the AC50 was 20.6 µM [falling, partial curve].

As for `O=S(=O)(c1ccc(N2CCOCC2)nc1)N1CCOCC1`, the cell number change is -1.17%.

Turning to `Cc1ccc(OCCC(=O)OCC(=O)c2c(N)n(CC(C)C)c(=O)n(C)c2=O)cc1`, the cell number change is -15.5%. Under setting [2], the half-maximal activity concentration (AC50) is 16.4 µM [falling, partial curve]. Consider `O=C(Nc1cccc(-c2cnc3ccccc3n2)c1)c1ccco1`, for which, under setting [2], the AC50 was 29.1 µM [falling, partial curve, poor fit]. On to `COc1cccc(CN2CCCN(S(=O)(=O)c3ccc(Br)cc3)CC2)c1`, for which the half-maximal activity concentration (AC50) under setting [1] was 0.92 µM [falling, single point]. Consider `COC(=O)c1ccccc1NC(NC(=O)c1ccco1)C(=O)c1ccccc1` (stereo not drawn), for which the cell number change worked out at 37.9%. Also, the AC50 under setting [1] was 18.4 µM [rising, single point]. For the compound `Cc1cc(C)cc(N2C(=O)CC(n3ccnc3)C2=O)c1` (stereo not drawn), the cell number change came to 5.58%. The concentration at half-maximal activity (AC50) under setting [1] was 6.51 µM [rising, single point]. Turning to `CCCCOc1ccc(S(=O)(=O)N2CCCCC2)cc1`, the cell number change is -5.25%.

In the case of `O=C(NCC1CC1)c1onc(CSc2ccc(F)c(F)c2)c1C(=O)NCC1CC1`, the cell number change was -15.2%. The AC50 under setting [1] is 4.11 µM [falling, single point]. In addition, under setting [2], the half-maximal activity concentration (AC50) is 2.31 µM [falling, single point]. As to `Nc1ccccc1S(=O)(=O)NC1=NCCCCC1`, the cell number change is -52.1%. Further, under setting [1], the AC50 is 1.16 µM [falling, full curve]. Also, the half-maximal activity concentration (AC50) under setting [2] was 2.31 µM [falling, full curve, poor fit]. For `O=C(CCc1nc(-c2ccccc2Cl)no1)Nc1cccnc1`, the cell number change was -11.3%. Besides, under setting [2], the concentration at half-maximal activity (AC50) is 29.1 µM [falling, single point]. Take `COc1ccc(C2CC(c3ccccc3)=NN2C(=O)CSc2nccc(=O)[nH]2)cc1` (stereo not drawn): the cell number change was -19%. For the same compound, under setting [1], the AC50 was 0.651 µM [falling, single point].

For the compound `COc1cc(-c2nc(CN3CCN(c4ncccn4)CC3)c(C)o2)ccc1F`, the cell number change amounted to 25.7%. Regarding `Cc1c(CCC(=O)NCCCN2CCCC2=O)c(=O)oc2cc(O)ccc12`, the cell number change was found to be 6.15%. Also, the AC50 under setting [2] is 4.11 µM [rising, full curve, poor fit]. As to `Cc1ccc2nc(SCC(=O)N3CCC(Cc4ccccc4)CC3)nc(=O)n2c1`, the cell number change is 1.39%. Besides, under setting [2], the concentration at half-maximal activity (AC50) is 6.51 µM [rising, single point]. Turning to `CN(Cc1cccs1)C(=O)CSc1nnnn1C`, the cell number change was -21.6%. Besides, the concentration at half-maximal activity (AC50) under setting [1] was 0.13 µM [falling, full curve, poor fit]. Under setting [2], the half-maximal activity concentration (AC50) is 0.13 µM [falling, full curve, poor fit].

For `N#C/C(=C(\O)Cc1ccccc1)c1nc2ccccc2[nH]1`, the AC50 was 0.731 µM [rising, single point] under setting [1] and 0.651 µM [rising, single point] under setting [2]. In the case of `CCOC(=O)c1c(NC(=S)Nc2ccc(C)cc2)sc2c1CCC2`, the cell number change came to 44.9%. Further, the AC50 under setting [1] was 0.92 µM [rising, partial curve]. Moreover, the concentration at half-maximal activity (AC50) under setting [2] was 1.46 µM [rising, full curve].

Consider `Cc1ccccc1Cn1cnc2ccccc2c1=O`, for which the cell number change is 27.4%. The AC50 under setting [2] was 1.16 µM [rising, partial curve]. `COCc1ccc(C(=O)N2CCCC(C(=O)c3ccc(SC)cc3)C2)s1` (stereo not drawn): the cell number change is -6.03%. For the same compound, the concentration at half-maximal activity (AC50) under setting [2] is 4.11 µM [falling, single point]. In the case of `Cc1ccc(-c2nc3c(c(SCC(=O)Nc4cccc(C(=O)O)c4)n2)Cc2cccc(C)c2O3)cc1`, the cell number change came to 18.9%. The half-maximal activity concentration (AC50) under setting [2] is 29.1 µM [rising, single point]. On to `COc1ccc(NC2CCCN(C(=O)c3cc(CC(C)C)nc(N)n3)C2)cc1` (stereo not drawn), for which the cell number change is -11.2%. Besides, the concentration at half-maximal activity (AC50) under setting [2] was 6.51 µM [falling, single point]. Consider `CCCc1cc(=O)[nH]c(SCC(=O)NC(=O)NC2CCCC2)n1`, for which the cell number change is -2.36%. Under setting [2], the AC50 is 0.116 µM [falling, full curve, poor fit]. For the compound `CCNc1ccc(C(=O)OCC(=O)N2c3ccccc3NC(=O)C2(C)C)cc1[N+](=O)[O-]`, the cell number change was -4.08%. The AC50 under setting [2] was 29.1 µM [rising, single point]. Take `Cc1ccn2c(NC3CCCC3)c(-c3ccccn3)nc2c1`: the cell number change was -30.5%. The AC50 under setting [1] is 20.6 µM [falling, single point]. Under setting [2], the half-maximal activity concentration (AC50) was 20.6 µM [falling, partial curve]. On to `Cc1ccc(Nc2ccc(S(=O)(=O)N3CCOCC3)cc2[N+](=O)[O-])c(C)c1`, for which the cell number change is -28.5%.

As for `CCOC(=O)c1[nH]c2ccc(OC)cc2c1NC(=O)C(C)N1CCC2(CC1)OCCO2` (stereo not drawn), the cell number change is -6.34%. The AC50 under setting [2] is 0.116 µM [rising, single point].

In the case of `Cc1ccc(N=Cc2c(C)[nH]n(-c3ccccc3)c2=O)nc1`, the cell number change is 16.2%. For the same compound, under setting [2], the half-maximal activity concentration (AC50) is 0.092 µM [rising, full curve, poor fit]. Take `CC(=NCc1ccco1)c1c(C(F)(F)F)[nH]n(-c2nc3ccccc3s2)c1=O`: the cell number change was 109%. In addition, the AC50 under setting [1] was 7.31 µM [rising, partial curve]. Regarding `CC(=O)Nc1ccc(S(=O)(=O)NNC(=O)COc2cc(C)ccc2C(C)C)cc1`, the concentration at half-maximal activity (AC50) under setting [1] was 0.0326 µM [rising, full curve, poor fit] and the AC50 under setting [2] was 14.6 µM [falling, partial curve, poor fit]. For the compound `CC1(C2CC2)NC(=O)N(CC(=O)N2CCN(c3ccccc3)CC2)C1=O` (stereo not drawn), the cell number change is -1.47%. The half-maximal activity concentration (AC50) under setting [2] is 0.0731 µM [rising, full curve, poor fit]. For the compound `COc1cccc(-c2csc(N3CCN(C(=O)Nc4ccccc4Cl)CC3)n2)c1`, the cell number change is 16.5%. In addition, the AC50 under setting [1] was 0.00411 µM [rising, full curve, poor fit].

Take `CC1CCCCN1CCCNC(=O)Cn1c(=O)c2cccn2c2ccccc21` (stereo not drawn): the AC50 under setting [2] is 6.51 µM [falling, single point].

With `Cc1ccc(-c2nnn(CC(=O)N(CC(=O)NC3CCCC3)c3cccc(F)c3)n2)o1`, the cell number change is -2.63%. In the case of `O=C(CNS(=O)(=O)c1cccs1)N1CCCC1`, the cell number change was -4.25%. Moreover, under setting [2], the AC50 is 0.82 µM [falling, full curve, poor fit]. On to `CCN(CC)S(=O)(=O)c1cccc(NC(=O)CN(C)C2CCCCC2)c1`, for which the cell number change worked out at 22.5%. The concentration at half-maximal activity (AC50) under setting [2] was 6.51 µM [falling, partial curve, poor fit]. On to `COC(=O)c1nc(-n2nc(C)cc2C)ccc1Cl`, for which the cell number change was 14.6%. Also, under setting [1], the AC50 is 0.651 µM [rising, full curve]. Moreover, the AC50 under setting [2] was 6.51 µM [rising, single point].

For `CCc1ccc(NC(=O)C2CC(=O)Nc3ncnn32)cc1` (stereo not drawn), the cell number change was 100%. In addition, the concentration at half-maximal activity (AC50) under setting [1] was 18.4 µM [rising, single point]. Regarding `O=C(COC(=O)/C=C/c1ccc(F)cc1)Nc1ccccc1-c1ccccc1`, the cell number change was -22.6%. Moreover, the half-maximal activity concentration (AC50) under setting [2] was 2.31 µM [rising, partial curve]. `O=C(O)CC1NC(=O)N(c2ccc(Cl)cc2)C1=O` (stereo not drawn): the cell number change amounted to 2.79%. The half-maximal activity concentration (AC50) under setting [2] is 6.51 µM [falling, partial curve, poor fit]. In the case of `CC(=O)NC(Cc1ccccc1F)C(=O)NC1CCN(S(=O)(=O)c2ccccc2)CC1` (stereo not drawn), the cell number change was 17.7%. As for `CC(OC(=O)C1CCCCC1)C(=O)Nc1cccc([N+](=O)[O-])c1` (stereo not drawn), the cell number change is -34.2%. Besides, the AC50 under setting [1] is 32.6 µM [falling, single point]. `CCOC(=O)c1cn(CC)c2ccc(S(=O)(=O)N3CCC(C)CC3)cc2c1=O`: the cell number change stood at 8.1%. Also, the AC50 under setting [2] is 5.8 µM [rising, full curve, poor fit]. For the compound `CC(=O)N1C=CN(C(C)=O)C(c2cn(C)c3ccccc23)C1c1cn(C)c2ccccc12` (stereo not drawn), the cell number change is -11.7%.

As for `COc1cccc(NC(=O)COC(=O)CCC2CCCC2)c1`, the cell number change worked out at 7.09%. Moreover, the AC50 under setting [2] was 16.4 µM [rising, partial curve, poor fit].

As a reminder, the AC50 is the midpoint of the concentration-response curve, whichever way the signal moves. Higher therefore signals activity only at high concentration.
